Source: patent US20150140121A1, “Compositions and Methods for Tight Junction Modulation” (Lankenau Institute for Medical Research, priority 2012, published 2015)
For part of these data: At least one structure is not confirmed: it was looked up by name or label, or the drawing left a doubt. Some results were stated once for a whole list of compounds, not compound by compound.

Experiments:
occludin = conditions: butyrate 2 mM; CACO-2; Peng et al. 2009; cited from earlier work
claudin-1 [1] = conditions: butyrate 2 mM; CACO-2; Peng et al. 2009; cited from earlier work
claudin-4 [2] = conditions: butyrate 2 mM; CACO-2; Peng et al. 2009; cited from earlier work
ZO-1 = conditions: butyrate 2 mM; CACO-2; Peng et al. 2009; cited from earlier work
[3] = tested on: human colonic (CACO-2) cell layers; conditions: butyrate 2 mM, Peng et al. 2009; cited from earlier work
LLC-PK1 cell layers [4] = assay: Transepithelial electrical resistance (Rt) across LLC-PK1 cell layers; format: cell-based, porcine; conditions: 400 μM quercetin alone (maximally effective concentration); LLC-PK1 renal epithelial cell layers; 12 cell layers
Description: LLC-PK1 is a porcine cell line model of the kidney proximal tubule.
The effect of zinc and/or quercetin on the electrical resistance across LLC-PK1 renal epithelial cell layers was tested. Briefly, LLC-PK1 renal epithelial cell layers were treated with either 100 μM zinc alone, 400 μM quercetin alone; or both agents together. The stimulation of transepithelial electrical resistance (Rt) by maximally effective concentrations of zinc alone and quercetin alone was in the range of 50-60% of control levels. […] The results shown in FIG. 8 represent the mean+/− standard error for 12 cell layers. P values are for one-sided Student's t tests.

LLC-PK1 cell layers [5] = conditions: rapamycin as low as 1 micromolar, Martin-Martin et al. 2010; cited from earlier work
Claudin-1 [6] = conditions: rapamycin as low as 1 micromolar; LLC-PK1 cell layers; Martin-Martin et al. 2010; cited from earlier work
Claudin-4 [7] = conditions: rapamycin as low as 1 micromolar; LLC-PK1 cell layers; Martin-Martin et al. 2010; cited from earlier work
Claudin-7 = conditions: rapamycin as low as 1 micromolar; LLC-PK1 cell layers; Martin-Martin et al. 2010; cited from earlier work

In the case of CCCC(=O)O [butyrate], the amount of occludin (occludin) is listed as “unaffected”, the “cellular redistribution of occludin” value (occludin) is listed as “induced cellular redistribution” and the “amount of claudin-1” value (claudin-1 [1]) is listed as “unaffected”. The “amount of claudin-4” value (claudin-4 [2]) was “unaffected”, the “amount of ZO-1” value (ZO-1) was “unaffected” and the “cellular redistribution of ZO-1” value (ZO-1) was “induced cellular redistribution”. The “paracellular leak of the large nonelectrolyte inulin” value [3] was “decreased”.

In the case of O=c1c(O)c(-c2ccc(O)c(O)c2)oc2cc(O)cc(O)c12 [quercetin], the “stimulation of transepithelial electrical resistance (Rt)” value (LLC-PK1 cell layers [4]) was 50-60 % of control levels.

In the case of CO[C@H]1C[C@@H]2CC[C@@H](C)[C@@](O)(O2)C(=O)C(=O)N2CCCC[C@H]2C(=O)O[C@H]([C@H](C)C[C@@H]2CC[C@@H](O)[C@H](OC)C2)CC(=O)[C@H](C)/C=C(\C)[C@@H](O)[C@@H](OC)C(=O)[C@H](C)C[C@H](C)/C=C/C=C/C=C/1C [rapamycin], the Rt (LLC-PK1 cell layers [5]) is given as “increased”, the “expression of claudin 1” value (Claudin-1 [6]) is given as “stimulated” and the “expression of claudin 4” value (Claudin-4 [7]) is given as “stimulated”. The “expression of claudin 7” value (Claudin-7) was “stimulated”.
